# Assay results reported in patent US20090216029A1, “PROCESS FOR THE PRODUCTION OF ATORVASTATIN CALCIUM IN AMORPHOUS FORM” (priority 2008, published 2009).
# Counter-ions that a name gives are not always drawn.
# Conditions: 25° C./60% relative humidity for 3 months
smiles,measurement,setting,value
"CC(C)c1c(C(=O)Nc2ccccc2)c(-c2ccccc2)c(-c2ccc(F)cc2)n1CC[C@@H](O)C[C@@H](O)CC(=O)O (relative stereo) [amorphous atorvastatin calcium, [R—(R*,R*)]-2-(4-fluorophenyl)-β,δ-dihydroxy-5-(1-methylethyl)-3-phenyl-4-[(phenylamino)carbonyl]-1H-pyrrole-1-heptanoic acid, calcium salt (2:1)]","Content of each impurity after storage (Formulae I, II, IV, V, VI, VIII, X)",,not more than 0.05%
same,"Content of each impurity after storage (Formulae I-VI, VIII, X, unidentified impurity RRT~1.17)",,not more than 0.1%
same,"Content of each impurity after storage (Formulae I-VI, VIII, X-XII, unidentified impurities RRT~1.03 and RRT~1.17)",,not more than 0.15%
same,"Content of each impurity after storage (Formulae I-VIII, X-XII, unidentified impurities RRT~1.03 and RRT~1.17; not diketoepoxide IX)",,Not more than 0.3%
same,"Content of each impurity after storage (Formulae I-XII, unidentified impurities RRT~1.03 and RRT~1.17)",,not more than 0.5%
same,Content of O-methyl atorvastatin calcium of Formula X found in amorphous atorvastatin after storage,by HPLC,Less than 0.05% w/w
same,Content of dihydroxy diepoxide of Formula VIII found in amorphous atorvastatin after storage,by HPLC,Less than 0.05% w/w
same,Content of methyl ester of atorvastatin of Formula VI found in amorphous atorvastatin after storage,by HPLC,Less than 0.05% w/w
same,Content of amide impurity of Formula I found in amorphous atorvastatin after storage,"by HPLC, LOD 0.04%",to below 0.05% w/w
same,Content of 5′-deshydroxy atorvastatin of Formula V found in amorphous atorvastatin after storage,"by HPLC, LOD 0.048%",< 0.048%) to less than 0.05% w/w
same,Content of 3′-deshydroxy atorvastatin of Formula IV found in amorphous atorvastatin after storage,"by HPLC, LOD 0.049%",< 0.049%) to less than 0.05% w/w
same,Content of diastereomer of atorvastatin calcium of Formula II found in amorphous atorvastatin after storage,"by HPLC, LOQ 0.062",than 0.5% w/w
